{"source": "PubChem BioAssay AID1259308 (NCATS, 2017)", "assay": "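Knock-downs that increase output of a recombinant reporter protein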 (primary screen)", "cell system": "human HEK293 embryonic kidney cells stably expressing firefly luciferase (HEK-CMV-Luc2-Hygro)", "knock-down reagent": "single siRNA against human genes, 0.8 pmol siRNA per well", "time to read-out": "72 h", "measured": "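Luciferase light (ONE-Glo) measured on one replicate plate set and viability (CellTiter-Glo) on the other, scaled to a negative control siRNA, with robust z-scores and luciferase per cell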", "scale": "total luciferase, z-score and total luciferase, % of control: higher = more reporter protein produced", "active means": "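An siRNA counts as active if its total luciferase robust z-score exceeds 3; genes with two or more such siRNAs out of three were retested with fresh siRNAs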", "meaning of the calls": "active = raised luciferase; inactive = no rise", "note": "This is one part, drawn at random, of about 59,000 reagents. In the full data, about 1,510 (2.6%) were called active. 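Calls use total luciferase alone and ignore viability, so some active siRNAs may act by altering cell number.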 Entries without a mark were called inactive. The numbers tell different reagents against one gene apart. Further read-outs or replicates are left out here."}
The first 3 records as a preview:
{"Gene":"KCNK10","siRNA no.":1,"total luciferase, z-score":1.64,"total luciferase, % of control":114}
{"Gene":"KCNK10","siRNA no.":2,"total luciferase, z-score":-0.403,"total luciferase, % of control":73.9}
{"Gene":"KCNK10","siRNA no.":3,"total luciferase, z-score":-1.04,"total luciferase, % of control":61.3}

The list itself, from the start:
{"Gene":"KCNK10","siRNA no.":1,"total luciferase, z-score":1.64,"total luciferase, % of control":114}
{"Gene":"KCNK10","siRNA no.":2,"total luciferase, z-score":-0.403,"total luciferase, % of control":73.9}
{"Gene":"KCNK10","siRNA no.":3,"total luciferase, z-score":-1.04,"total luciferase, % of control":61.3}
{"Gene":"RAC2","siRNA no.":1,"total luciferase, z-score":-0.875,"total luciferase, % of control":64.5}
{"Gene":"RAC2","siRNA no.":2,"total luciferase, z-score":0.119,"total luciferase, % of control":84.3}
{"Gene":"RAC2","siRNA no.":3,"total luciferase, z-score":-0.899,"total luciferase, % of control":64}
{"Gene":"MYSM1","siRNA no.":1,"total luciferase, z-score":1.21,"total luciferase, % of control":106}
{"Gene":"MYSM1","siRNA no.":2,"total luciferase, z-score":-0.474,"total luciferase, % of control":72.5}
{"Gene":"MYSM1","siRNA no.":3,"total luciferase, z-score":1.3,"total luciferase, % of control":108}
{"Gene":"LRTOMT","siRNA no.":1,"total luciferase, z-score":0.822,"total luciferase, % of control":98.2}
{"Gene":"LRTOMT","siRNA no.":2,"total luciferase, z-score":1.61,"total luciferase, % of control":114}
{"Gene":"LRTOMT","siRNA no.":3,"total luciferase, z-score":-0.229,"total luciferase, % of control":77.3}
{"Gene":"TH","siRNA no.":1,"total luciferase, z-score":-1.04,"total luciferase, % of control":61.2}
{"Gene":"TH","siRNA no.":2,"total luciferase, z-score":2.16,"total luciferase, % of control":125}
{"Gene":"TH","siRNA no.":3,"total luciferase, z-score":0.414,"total luciferase, % of control":90.1}
{"Gene":"NHERF1","siRNA no.":1,"total luciferase, z-score":-0.887,"total luciferase, % of control":64.2}
{"Gene":"NHERF1","siRNA no.":2,"total luciferase, z-score":-0.314,"total luciferase, % of control":75.6}
{"Gene":"NHERF1","siRNA no.":3,"total luciferase, z-score":1.31,"total luciferase, % of control":108}
{"Gene":"GLIS1","siRNA no.":1,"total luciferase, z-score":-0.737,"total luciferase, % of control":67.2}
{"Gene":"GLIS1","siRNA no.":2,"total luciferase, z-score":-0.503,"total luciferase, % of control":71.9}
{"Gene":"GLIS1","siRNA no.":3,"total luciferase, z-score":1.55,"total luciferase, % of control":113}
{"Gene":"TRAPPC11","siRNA no.":1,"total luciferase, z-score":0.347,"total luciferase, % of control":88.8}
{"Gene":"TRAPPC11","siRNA no.":2,"total luciferase, z-score":-0.925,"total luciferase, % of control":63.5}
{"Gene":"TRAPPC11","siRNA no.":3,"total luciferase, z-score":0.0427,"total luciferase, % of control":82.7}
{"Gene":"NIN","siRNA no.":1,"total luciferase, z-score":0.418,"total luciferase, % of control":90.2}
{"Gene":"NIN","siRNA no.":2,"total luciferase, z-score":-0.743,"total luciferase, % of control":67.1}
{"Gene":"NIN","siRNA no.":3,"total luciferase, z-score":2.39,"total luciferase, % of control":129}
{"Gene":"FOXQ1","siRNA no.":1,"total luciferase, z-score":0.269,"total luciferase, % of control":87.2}
{"Gene":"FOXQ1","siRNA no.":2,"total luciferase, z-score":-0.424,"total luciferase, % of control":73.5}
{"Gene":"FOXQ1","siRNA no.":3,"total luciferase, z-score":1,"total luciferase, % of control":102}
{"Gene":"CHST1","siRNA no.":1,"total luciferase, z-score":-0.105,"total luciferase, % of control":79.8}
{"Gene":"CHST1","siRNA no.":2,"total luciferase, z-score":1.2,"total luciferase, % of control":106}
{"Gene":"CHST1","siRNA no.":3,"total luciferase, z-score":1.7,"total luciferase, % of control":116}
